The record followed here is publication PMC3808539, “CtpB Assembles a Gated Protease Tunnel Regulating Cell-Cell Signaling during Spore Formation in Bacillus subtilis” (Cell, 2013).

The experiment has as its target T1, peptide NH2-…-COOH (spot 594 of the inverted peptide array) (B. subtilis).
T1 sequence (peptide): NLVLAGLHSYA
As to the kind of experiment: peptide or protein array; inverted peptides (free C termini) on a cellulose membrane; incubated with CtpB variant 10 μg/ml overnight at 4°C, TBS pH 8.0; detected with anti-polyHis antibody; both purified.

Results are given in words; binding and its absence hold for the method and conditions named. Binding can be weak; no strength is given.

With “isolated PDZ domain of CtpB (B. subtilis) (domain or fragment)”, the binding result was “binds”.
